These are yes or no findings as the source states them, for the method shown. Binding seen in cells or lysates may run through a third protein. Some entries that bind do so weakly or less than the wild type.

Amino acid sequences for entries named in this document (tags omitted). Residues count along the entry.
UniProt Q9WTX6: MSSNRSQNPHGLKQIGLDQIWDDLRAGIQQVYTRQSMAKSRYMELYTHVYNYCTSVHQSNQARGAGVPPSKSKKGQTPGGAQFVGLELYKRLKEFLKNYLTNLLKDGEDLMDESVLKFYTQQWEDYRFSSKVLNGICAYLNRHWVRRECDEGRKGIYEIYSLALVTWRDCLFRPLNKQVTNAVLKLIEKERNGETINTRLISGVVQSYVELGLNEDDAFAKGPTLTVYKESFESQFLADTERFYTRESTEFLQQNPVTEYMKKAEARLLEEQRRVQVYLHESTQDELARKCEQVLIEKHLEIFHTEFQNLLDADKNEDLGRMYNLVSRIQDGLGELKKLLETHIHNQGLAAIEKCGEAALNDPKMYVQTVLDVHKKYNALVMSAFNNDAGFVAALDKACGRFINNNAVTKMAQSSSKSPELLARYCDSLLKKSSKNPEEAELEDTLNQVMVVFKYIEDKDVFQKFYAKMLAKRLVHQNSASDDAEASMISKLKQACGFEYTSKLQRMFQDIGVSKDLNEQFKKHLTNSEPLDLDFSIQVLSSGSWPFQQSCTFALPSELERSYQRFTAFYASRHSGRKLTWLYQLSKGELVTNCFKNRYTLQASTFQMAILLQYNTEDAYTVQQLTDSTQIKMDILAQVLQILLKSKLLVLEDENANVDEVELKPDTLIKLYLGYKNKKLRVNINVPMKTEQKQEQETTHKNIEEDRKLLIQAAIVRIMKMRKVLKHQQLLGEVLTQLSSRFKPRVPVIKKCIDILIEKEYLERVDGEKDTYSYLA
UniProt P29595, residues 1-76: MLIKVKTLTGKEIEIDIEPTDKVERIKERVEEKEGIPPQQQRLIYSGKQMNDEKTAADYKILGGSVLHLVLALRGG

For the assay, the target named is cullin 1, mouse (mouse (endogenous in colon tissue)) (UniProt Q9WTX6). The assay is described as follows: co-IP; Pierce Co-Immunoprecipitation Kit, antibody immobilised on resin, eluate read by Western blot; mouse colon tissue; groups: Neg, DSS, hucMSC-Ex, and hucMSC-Ex transfected with miR-326 mimics, mimics NC, inhibitor or inhibitor NC.

Turning to “NEDD8 (neural precursor cell-expressed, developmentally downregulated gene 8), mouse (from UniProt P29595 1-76)”, the binding entry is “binds”.

The values are drawn from publication PMC7403704.
